Here are results for 69 sequences from PubChem BioAssay AID1508600 (Functional Genomics Laboratory (NCATS/FGL), 2020).

Hit rate of the full screen: of about 53,000 sequences, about 3,700 (7%) were called active.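 Rule for the calls: active = gene knockdowns whose robust z-score for IL-1 alpha signal is at least 2 or at most -2, so actives lie on both sides; inactive = the rest.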 The list shows a part of the results.

The assay is described as follows: Components of the Cytosolic LPS Sensing Pathway: Gene Identification via Genome-wide siRNA Screen.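 Note: robust z of the log signal after scaling to non-targeting control siRNA wells of the plate.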 To be noted: RAW264.7 macrophages, IL-1a HTRF, actives lie on both sides, screened at 100 nM (by protocol), cells primed 5 h with Pam3CSK4 first. The method in brief: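 Using IL-1a HTRF as read-out, the screen measured release from RAW264.7 cells after 48h siRNA knockdown (100 nM), 5 h Pam3CSK4 priming and 24 h cytosolic LipidA. Values were expressed relative to negative-control wells as robust z-scores.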
On the technique in general: TR-FRET usually uses a lanthanide donor and a delayed reading to cut background.
As to GGACUUACUUCCCAUUUCGTT against Gdpd3, the z-score is inactive: 0.297.

Regarding CGAGCAAUGUUAAAAAUGATT against Slain2, the z-score was inactive: -0.993.

In the case of GGCAAUUACUUCAUUGAUCTT against Kctd6, the z-score is inactive: 0.0121.

With GGAGGAACUCUGGCAAGCUTT against Zswim6, the z-score was inactive: 1.82.

As for GCUUCUGAAUAUCAGACGGTT against Tmem150c, the z-score is inactive: -0.202.

For CGGAGAGUAUGAGAGUUCCTT against Kank3, the z-score is inactive: 0.42.

On to GGUGCCAUGGCUAUCUGUGTT against Tonsl, for which the z-score was inactive: -0.294.

Consider GGUGAACCUGUCAAACCUUTT against Hspbap1, for which the z-score was inactive: -0.504.

In the case of GCCAGAUAGACAAUGAAGUTT against Ctif, the z-score was inactive: -0.288.

As to GGCUUACCGUACCUUCCAATT against Cntf, the z-score was inactive: 1.02.

Regarding GGAAAUACCGGAACCAGAATT against Jmjd6, the z-score is inactive: 0.519.

With GGAGAACAGAUAAAUAGUGTT against Msh2, the z-score was inactive: -0.218.

With GGGAGAGGUAUGUCUGUAATT against Il15ra, the z-score is inactive: -0.615.

Consider GGAGUACAGCUGUGUAAUATT against Pcna, for which the z-score was inactive: 0.0721.

On to GCGAUUGAGAGGCUACACUTT against Pigb, for which the z-score is inactive: 0.402.

Regarding GGGCUUAUUCUCAGUUCUGTT against Slc17a1, the z-score was inactive: -0.395.

For the sequence GGCUAAUGAUCAGGAUAUUTT against Cdh8, the z-score was inactive: 1.7.

For GCAAUAAAGCUCCUUCCAUTT against Ctrc, the z-score is inactive: 1.68.

In the case of GCACACACUGCUACGAUGGTT against Cd177, the z-score is inactive: 0.322.

On to CCUAUGCAUCAGACCUUUGTT against Nedd9, for which the z-score is active: 2.7.

For the sequence CCUGCUCCUUACAUCUCGCTT against Foxred2, the z-score is inactive: 1.51.

As for GGUGUCUGAAUUUGUGGCUTT against Abtb1, the z-score was inactive: -0.562.

As for GCAUACAAAUGCACAUUGATT against Lsg1, the z-score was active: 2.69.

On to GGAGAAAUGUCAGUGCGAUTT against Mlc1, for which the z-score is inactive: 0.431.

With GGCUUUCUUUUGGAAGCUCTT against Frrs1, the z-score is inactive: -0.805.

Turning to CCUACAAAAUCUUUCCCAATT against Ero1b, the z-score was inactive: -0.741.

As for GCGAGCUCAGAUCAAAUAGTT against Acsl3, the z-score is inactive: 1.7.

In the case of GGUAUGGAAGACAAAACCUTT against Nlrp1a, the z-score is inactive: 0.61.

On to GGUCAACUCUACCAUAUCATT against Tnfsf8, for which the z-score was inactive: -0.66.

For GGAUAAAGUUUAAGGAUGGTT against Vmn1r40, the z-score was inactive: -0.43.

With GGAGAGAACAUUGAACAAATT against Ssx2ip, the z-score was inactive: 0.782.

In the case of GGGCUUUCUAUGCUGGAGGTT against Atp8b3, the z-score is inactive: 0.0965.

AUGCAGUCAGAGACAGACCTT against Gm5168: the z-score was inactive: -0.21.

For GGUGUCUGCUUCUUCAAAGTT against Slc25a26, the z-score is active: -2.33.

Turning to GGAAAUAGACGCAAAAAUATT against Chsy3, the z-score was inactive: 0.593.

With GGGACAUUUUCUUCUUUAUTT against Gch1, the z-score was inactive: 0.703.

As for GGUUGGUUAAUCCAACCAGTT against Fpr3, the z-score was inactive: 1.14.

Regarding GCAUUGUGAUGACCACCUGTT against Slc10a1, the z-score is inactive: -1.45.

As to GUUAACCCUGAGCCUAAACTT against Spata3, the z-score was inactive: 0.356.

Turning to GGAGGAGGCAGAAACAACATT against Tex46, the z-score is inactive: 1.87.

For GGAAUUUUAGCCAAGACAATT against Bbs4, the z-score was inactive: -0.221.

Consider GGGAAGGAUGACCUAACAATT against Gpatch4, for which the z-score was inactive: -0.839.

GCCCAAACUAAAUAAAGGATT against Il1r2: the z-score was inactive: 0.153.

As to GCCAAAAACGAUGAAAUGUTT against Phf11d, the z-score was inactive: -0.801.

For GCUCAUCGGAGAGUUCUAUTT against Ube2h, the z-score was inactive: 0.594.

For CCUAAUGGAAGGGAAGCCATT against Cox19, the z-score was active: -2.06.

As to GGGAAAUCACAAUUCCUUATT against Mcm9, the z-score is inactive: 0.664.

For CCCUGCUUAACAAACCAACTT against Ggcx, the z-score is inactive: 0.197.

Turning to GCCUUAUAUAGCAACAUACTT against Slc25a3, the z-score was inactive: 0.285.

On to GAAAUGAGUCCUUGAAAAGTT against Olfr127, for which the z-score is inactive: -0.0661.

In the case of GCUGUGGUGUUAGAAAUAATT against Samt3, the z-score was inactive: 0.306.

With GCAGUUUGGUGAAUCCAGCTT against Nsun6, the z-score is inactive: 0.437.

On to CCAAGAAUGACGAUUGCUCTT against Synm, for which the z-score is inactive: 0.543.

Take GGACAAAGGCUGUAUUUUCTT against Tgm3: the z-score was inactive: -1.07.

For CCACUUUUUUAGAUCCCUGTT against Usb1, the z-score was inactive: -1.3.

Regarding CCAUGUUACAUGAAAUAGUTT against Phf21a, the z-score is inactive: 0.148.

Turning to GGAUAUCCAAGUAAGGUGUTT against Mrpl9, the z-score was inactive: -0.504.

For the sequence GCAAAAGUAUCUACUGGCGTT against Clec1b, the z-score is inactive: 0.546.

On to CCGAAGCUUUAUCUUCUAUTT against Pkd2, for which the z-score is inactive: -0.719.

GGAUGGGUUUGAUCUUAAUTT against Il13ra2: the z-score was inactive: 0.519.

Consider CCUCUGUUGGUCGUAAAGCTT against Zc4h2, for which the z-score is inactive: -1.54.

Take GGAUAAGGGACAAAAACCCTT against Krba1: the z-score is inactive: -1.69.

Take GGUAGACUCUAGAUUAAGATT against Srrm2: the z-score is inactive: -0.58.

As to GGUCAAAGAACAAAAAGAATT against Muc13, the z-score is inactive: -0.176.

GCGAGAUGGAAGGAUCUUGTT against Anapc13: the z-score was active: 5.28.

Regarding GGCCAAGUAGCCAUGGGAUTT against Lyl1, the z-score is inactive: -0.124.

On to GGAAUAGUAACUCUUUCUCTT against Ehbp1l1, for which the z-score was inactive: -0.0157.

For the sequence GCUUAUUUGAAGUCUCAUGTT against Cpa5, the z-score was inactive: -0.625.

On to AUUGCAUUCCUCCAGACUGTT against Xlr4c, for which the z-score was inactive: 0.865.
